In publication PMC5510181:
Results are given in words; binding and its absence hold for the method and conditions named. Binding seen in cells or lysates may run through a third protein. Some binding calls cover weakened binding; strength is not graded here. For some assays here: Tags and fused reporters may be left off the sequences shown.

Chains of the proteins cited; added tags and fusions are not shown. Lines headed by an entry give the natural chain unless they say otherwise; changes in a name come on top.
UniProt P20701: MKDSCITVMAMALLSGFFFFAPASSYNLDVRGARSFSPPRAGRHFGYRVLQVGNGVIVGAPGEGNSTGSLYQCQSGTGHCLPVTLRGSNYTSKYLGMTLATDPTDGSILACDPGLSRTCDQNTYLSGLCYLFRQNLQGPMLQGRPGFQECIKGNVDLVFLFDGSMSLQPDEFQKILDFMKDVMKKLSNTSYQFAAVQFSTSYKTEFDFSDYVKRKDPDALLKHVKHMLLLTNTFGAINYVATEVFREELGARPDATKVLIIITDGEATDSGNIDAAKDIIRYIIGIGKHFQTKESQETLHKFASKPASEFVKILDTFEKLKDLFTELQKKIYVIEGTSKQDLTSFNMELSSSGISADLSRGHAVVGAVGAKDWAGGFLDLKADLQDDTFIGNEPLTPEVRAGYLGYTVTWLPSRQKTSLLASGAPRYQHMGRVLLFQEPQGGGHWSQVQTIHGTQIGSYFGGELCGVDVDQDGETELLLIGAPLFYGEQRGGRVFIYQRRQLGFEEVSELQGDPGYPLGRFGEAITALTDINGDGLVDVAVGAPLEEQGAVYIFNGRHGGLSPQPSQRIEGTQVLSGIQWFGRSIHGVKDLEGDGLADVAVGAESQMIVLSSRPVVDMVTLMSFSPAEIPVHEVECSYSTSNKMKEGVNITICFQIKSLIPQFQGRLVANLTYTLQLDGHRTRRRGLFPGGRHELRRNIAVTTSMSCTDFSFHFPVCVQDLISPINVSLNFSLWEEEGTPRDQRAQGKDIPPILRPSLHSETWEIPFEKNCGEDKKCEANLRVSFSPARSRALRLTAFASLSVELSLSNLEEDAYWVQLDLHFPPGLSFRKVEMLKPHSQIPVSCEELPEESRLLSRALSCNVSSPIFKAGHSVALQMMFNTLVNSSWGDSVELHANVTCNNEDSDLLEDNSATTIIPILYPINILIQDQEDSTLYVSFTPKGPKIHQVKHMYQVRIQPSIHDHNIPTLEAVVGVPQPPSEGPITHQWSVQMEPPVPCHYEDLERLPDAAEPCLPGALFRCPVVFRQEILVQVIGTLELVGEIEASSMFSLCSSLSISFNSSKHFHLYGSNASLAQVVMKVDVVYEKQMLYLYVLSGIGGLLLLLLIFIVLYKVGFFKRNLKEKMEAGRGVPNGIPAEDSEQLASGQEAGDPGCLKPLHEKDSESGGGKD
UniProt P05107: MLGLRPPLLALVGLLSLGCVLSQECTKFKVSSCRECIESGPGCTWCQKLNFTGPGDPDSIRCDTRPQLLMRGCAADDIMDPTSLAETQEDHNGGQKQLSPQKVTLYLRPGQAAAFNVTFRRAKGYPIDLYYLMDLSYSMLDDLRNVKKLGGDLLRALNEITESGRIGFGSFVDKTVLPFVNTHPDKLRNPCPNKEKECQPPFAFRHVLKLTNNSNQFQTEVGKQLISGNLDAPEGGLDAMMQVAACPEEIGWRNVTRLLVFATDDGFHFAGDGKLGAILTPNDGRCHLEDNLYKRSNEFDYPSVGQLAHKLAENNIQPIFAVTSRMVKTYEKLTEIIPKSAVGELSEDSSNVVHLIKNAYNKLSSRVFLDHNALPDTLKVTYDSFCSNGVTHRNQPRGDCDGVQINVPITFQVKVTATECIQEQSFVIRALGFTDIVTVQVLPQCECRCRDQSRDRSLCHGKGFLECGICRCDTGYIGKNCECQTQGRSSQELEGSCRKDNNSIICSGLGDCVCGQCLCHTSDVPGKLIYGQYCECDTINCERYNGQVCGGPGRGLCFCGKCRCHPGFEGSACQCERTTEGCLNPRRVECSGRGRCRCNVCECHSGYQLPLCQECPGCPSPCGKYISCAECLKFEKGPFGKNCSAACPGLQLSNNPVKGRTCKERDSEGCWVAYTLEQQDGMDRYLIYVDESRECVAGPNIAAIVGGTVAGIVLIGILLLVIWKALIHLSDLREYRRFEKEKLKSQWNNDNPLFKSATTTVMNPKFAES
UniProt Q05397: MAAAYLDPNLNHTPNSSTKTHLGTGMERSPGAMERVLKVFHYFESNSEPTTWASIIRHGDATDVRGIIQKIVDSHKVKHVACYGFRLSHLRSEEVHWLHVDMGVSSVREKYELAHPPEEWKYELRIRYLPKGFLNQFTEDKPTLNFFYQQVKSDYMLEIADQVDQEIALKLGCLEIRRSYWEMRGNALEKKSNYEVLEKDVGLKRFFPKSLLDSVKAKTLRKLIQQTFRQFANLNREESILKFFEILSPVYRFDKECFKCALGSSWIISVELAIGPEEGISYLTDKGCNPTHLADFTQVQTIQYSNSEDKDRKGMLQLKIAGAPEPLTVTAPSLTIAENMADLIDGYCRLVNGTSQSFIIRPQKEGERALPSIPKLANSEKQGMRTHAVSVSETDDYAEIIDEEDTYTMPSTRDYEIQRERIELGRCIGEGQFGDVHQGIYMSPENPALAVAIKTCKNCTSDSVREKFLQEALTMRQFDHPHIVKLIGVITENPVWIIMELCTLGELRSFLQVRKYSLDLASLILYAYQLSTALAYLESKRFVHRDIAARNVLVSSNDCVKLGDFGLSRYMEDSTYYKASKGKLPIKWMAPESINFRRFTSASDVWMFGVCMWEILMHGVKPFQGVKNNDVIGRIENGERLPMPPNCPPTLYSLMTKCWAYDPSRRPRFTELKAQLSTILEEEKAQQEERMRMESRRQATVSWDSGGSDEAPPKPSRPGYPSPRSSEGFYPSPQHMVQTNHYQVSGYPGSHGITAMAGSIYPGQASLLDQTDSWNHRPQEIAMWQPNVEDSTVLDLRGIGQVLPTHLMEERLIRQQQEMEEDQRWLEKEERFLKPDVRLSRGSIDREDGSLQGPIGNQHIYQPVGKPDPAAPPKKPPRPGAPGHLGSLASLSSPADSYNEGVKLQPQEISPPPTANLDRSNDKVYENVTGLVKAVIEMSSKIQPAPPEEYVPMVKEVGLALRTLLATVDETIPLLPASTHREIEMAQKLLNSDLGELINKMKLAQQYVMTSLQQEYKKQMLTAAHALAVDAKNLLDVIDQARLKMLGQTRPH
UniProt P62993: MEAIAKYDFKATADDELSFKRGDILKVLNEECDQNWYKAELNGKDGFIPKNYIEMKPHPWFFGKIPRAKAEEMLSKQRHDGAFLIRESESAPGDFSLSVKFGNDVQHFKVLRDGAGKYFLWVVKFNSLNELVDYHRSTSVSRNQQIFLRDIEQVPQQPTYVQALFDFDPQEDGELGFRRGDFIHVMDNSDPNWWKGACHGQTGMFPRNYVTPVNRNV
UniProt Q14289: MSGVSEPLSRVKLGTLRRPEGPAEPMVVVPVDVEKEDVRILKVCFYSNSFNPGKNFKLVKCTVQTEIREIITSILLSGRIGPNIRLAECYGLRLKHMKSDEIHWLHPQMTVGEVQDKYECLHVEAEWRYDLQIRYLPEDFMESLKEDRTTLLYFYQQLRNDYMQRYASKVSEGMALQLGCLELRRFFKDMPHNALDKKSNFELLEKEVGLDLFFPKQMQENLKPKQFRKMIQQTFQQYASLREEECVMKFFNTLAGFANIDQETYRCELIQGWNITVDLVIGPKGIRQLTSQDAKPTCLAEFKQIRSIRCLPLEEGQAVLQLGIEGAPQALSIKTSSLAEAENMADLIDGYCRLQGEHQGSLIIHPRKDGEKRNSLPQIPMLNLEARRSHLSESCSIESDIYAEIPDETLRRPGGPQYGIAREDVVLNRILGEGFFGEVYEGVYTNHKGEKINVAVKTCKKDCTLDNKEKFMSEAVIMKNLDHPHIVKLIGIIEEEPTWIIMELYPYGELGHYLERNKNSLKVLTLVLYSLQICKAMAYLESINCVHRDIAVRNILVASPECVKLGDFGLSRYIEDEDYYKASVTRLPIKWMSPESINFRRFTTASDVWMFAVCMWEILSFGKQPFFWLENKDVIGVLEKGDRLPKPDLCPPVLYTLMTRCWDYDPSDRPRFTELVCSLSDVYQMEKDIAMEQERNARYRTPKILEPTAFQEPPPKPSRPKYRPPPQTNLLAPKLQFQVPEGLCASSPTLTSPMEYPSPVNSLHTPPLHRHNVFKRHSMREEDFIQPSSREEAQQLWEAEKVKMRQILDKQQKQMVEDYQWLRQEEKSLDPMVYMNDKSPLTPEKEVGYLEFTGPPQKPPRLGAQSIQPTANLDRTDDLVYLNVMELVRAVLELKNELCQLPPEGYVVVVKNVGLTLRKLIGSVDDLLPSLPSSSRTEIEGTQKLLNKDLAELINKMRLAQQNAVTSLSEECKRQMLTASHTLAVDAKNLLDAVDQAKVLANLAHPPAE

Legend:
[1] = molecular target: T1, Lymphocyte function-associated antigen 1 (LFA-1), endogenous in Jurkat T cells (human (endogenous in Jurkat)) (UniProt P20701+P05107); assay: co-IP; detergent lysates of Jurkat T cells ligated with anti-CD3 and/or anti-LFA-1 (5-10 min; some lysates first serially depleted with anti-SKAP1, anti-SLP-76 or anti-PLCγ1; with or without the inhibitor PF573228); precipitation with anti-SKAP1, anti-SLP-76, anti-PLCγ1 or anti-LFA-1, blotting
[2] = molecular target: T1, Lymphocyte function-associated antigen 1 (LFA-1), endogenous in Jurkat T cells (human (endogenous in Jurkat)); assay: condition: only resting cells (rabbit control anti-mouse, no LFA-1 cross-linking); co-IP; resting Jurkat T cells (rabbit control anti-mouse, no LFA-1 cross-linking); anti-LFA-1 precipitation, blotting with anti-FAK1
[3] = molecular target: T2, GST-SKAP1 SH3 domain (UniProt Q86WV1); assay: pull-down; GST fusion proteins from E. coli incubated 3 h with detergent lysates of transfected 293T cells; SDS-PAGE and western blotting; only the target purified
T2 sequence: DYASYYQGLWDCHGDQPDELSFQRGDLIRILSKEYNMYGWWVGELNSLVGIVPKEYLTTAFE

[4] = molecular target: T3, GST-SKAP1 wild-type (UniProt Q86WV1); assay: as above
T3 sequence: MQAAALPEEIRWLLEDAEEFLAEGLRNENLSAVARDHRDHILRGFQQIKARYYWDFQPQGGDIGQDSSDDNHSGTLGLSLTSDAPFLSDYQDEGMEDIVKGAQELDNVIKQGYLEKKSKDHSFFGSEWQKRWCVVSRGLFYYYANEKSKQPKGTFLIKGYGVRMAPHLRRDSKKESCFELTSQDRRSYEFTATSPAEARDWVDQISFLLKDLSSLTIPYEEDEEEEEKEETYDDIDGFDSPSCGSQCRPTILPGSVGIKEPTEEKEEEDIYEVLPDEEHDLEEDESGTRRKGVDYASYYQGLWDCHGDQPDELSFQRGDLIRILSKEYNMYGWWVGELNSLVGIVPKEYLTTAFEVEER

[5] = molecular target: T4, Flag-tagged SKAP1 (UniProt Q86WV1); assay: co-IP; 293T cells co-transfected with Flag-SKAP1 and the partner; precipitation with anti-Flag (legend; anti-SKAP1 in the text), blotting with anti-GFP or anti-Flag
T4 sequence: T3 sequence

[6] = molecular target: T2, GST-SKAP1 SH3 domain; assay: pull-down; GST fusion proteins from E. coli incubated with lysates of Jurkat cells ligated with anti-LFA-1 for 5 min; blotting with anti-PLCγ1, anti-LAT, anti-GRB-2, anti-ADAP, anti-SLP-76 and anti-GST; only the target purified
[7] = molecular target: T3, GST-SKAP1 wild-type; assay: as above

Substance: FAK1 (Focal Adhesion Kinase 1), endogenous in Jurkat T cells (from UniProt Q05397 1-1052) (enzyme)
- binding [1]: binds
- binding [2]: no binding

Substance: GFP-GRB2 (from UniProt P62993 1-217)
- binding [3]: no binding
- binding [4]: binds
- binding [5]: binds

Substance: GRB2 (growth-factor-receptor-bound protein 2), endogenous in human cells (from UniProt P62993 1-217)
- binding [6]: no binding
- binding [7]: binds

Substance: PYK2 (proline-rich tyrosine kinase-2), endogenous in Jurkat T cells (from UniProt Q14289 1-1009) (enzyme)
- binding [1]: binds
